For 4 molecules, binding results are on record in paper PMC6941229.

In test [1] the target is T1, FLAG-Asi3 (S. cerevisiae) (UniProt P53983).
T1 sequence: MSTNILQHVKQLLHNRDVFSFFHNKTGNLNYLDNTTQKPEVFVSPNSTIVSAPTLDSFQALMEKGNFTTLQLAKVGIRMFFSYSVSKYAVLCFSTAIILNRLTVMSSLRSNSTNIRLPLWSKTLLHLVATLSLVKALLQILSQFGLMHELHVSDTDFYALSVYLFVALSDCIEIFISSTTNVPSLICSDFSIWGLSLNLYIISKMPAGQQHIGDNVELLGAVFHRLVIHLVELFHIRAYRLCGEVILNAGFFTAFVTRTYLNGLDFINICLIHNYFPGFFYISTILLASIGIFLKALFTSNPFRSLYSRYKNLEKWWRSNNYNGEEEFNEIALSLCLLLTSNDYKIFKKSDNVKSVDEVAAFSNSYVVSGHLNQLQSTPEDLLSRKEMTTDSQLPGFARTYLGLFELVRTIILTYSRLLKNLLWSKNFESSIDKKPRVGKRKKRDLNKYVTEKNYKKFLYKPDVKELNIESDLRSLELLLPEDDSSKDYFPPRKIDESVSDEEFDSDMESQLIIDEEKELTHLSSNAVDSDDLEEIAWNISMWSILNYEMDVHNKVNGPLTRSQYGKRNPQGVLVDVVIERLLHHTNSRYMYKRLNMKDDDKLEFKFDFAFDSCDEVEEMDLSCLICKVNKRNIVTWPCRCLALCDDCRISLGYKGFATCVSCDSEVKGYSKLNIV
In words: co-IP; co-expressed Asi1, SBP-Asi2 and FLAG-Asi3; membranes solubilized in 1% DMNG, FLAG M2 agarose beads overnight, washed in 300mM sodium chloride, 0.3mM DMNG, eluted with 3xFlag-peptide.

The next test deals with T2, SBP-Asi2 (S. cerevisiae) (UniProt P53895).
T2 sequence: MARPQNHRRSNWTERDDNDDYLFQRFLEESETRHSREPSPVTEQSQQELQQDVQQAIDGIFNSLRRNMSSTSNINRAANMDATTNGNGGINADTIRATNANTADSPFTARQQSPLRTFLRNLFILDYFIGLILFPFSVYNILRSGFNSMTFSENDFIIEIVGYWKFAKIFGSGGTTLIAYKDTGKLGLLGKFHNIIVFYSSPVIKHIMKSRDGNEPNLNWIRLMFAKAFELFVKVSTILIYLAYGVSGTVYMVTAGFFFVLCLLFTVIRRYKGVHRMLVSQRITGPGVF
Description: pull-down; co-expressed Asi1, SBP-Asi2 and Asi3; membranes solubilized in 1% DMNG, High Capacity Streptavidin Agarose overnight, washed in 300mM sodium chloride, 0.3mM DMNG, eluted with 2mM Biotin.

In test [2] the target is T3, the Asi complex (Asi1 and Asi3, the partners of Asi2) (S. cerevisiae (endogenous in yeast cells)) (UniProt P54074+P53983).
T3 sequence 1: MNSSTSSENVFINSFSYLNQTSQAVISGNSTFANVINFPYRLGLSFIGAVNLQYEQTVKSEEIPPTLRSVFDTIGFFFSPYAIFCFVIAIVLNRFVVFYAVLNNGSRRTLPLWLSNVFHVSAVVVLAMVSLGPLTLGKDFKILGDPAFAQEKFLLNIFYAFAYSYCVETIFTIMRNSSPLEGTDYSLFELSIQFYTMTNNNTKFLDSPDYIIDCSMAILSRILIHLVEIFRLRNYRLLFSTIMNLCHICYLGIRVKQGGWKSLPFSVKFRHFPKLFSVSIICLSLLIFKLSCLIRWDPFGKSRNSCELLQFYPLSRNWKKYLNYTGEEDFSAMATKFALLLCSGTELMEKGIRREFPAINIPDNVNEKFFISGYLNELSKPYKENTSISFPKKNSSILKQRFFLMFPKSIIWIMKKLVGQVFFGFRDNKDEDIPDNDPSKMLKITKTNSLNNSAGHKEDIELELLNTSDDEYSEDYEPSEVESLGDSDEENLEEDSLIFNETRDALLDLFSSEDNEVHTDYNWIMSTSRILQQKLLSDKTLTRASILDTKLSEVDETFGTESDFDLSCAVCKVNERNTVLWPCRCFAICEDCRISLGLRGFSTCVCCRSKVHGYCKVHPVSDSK
T3 sequence 2: T1 sequence
In words: co-IP; native immunoprecipitation from membranes solubilized in 1% GDN or 1% DMNG, FLAG M2 magnetic beads or Protein A beads coupled to anti-Asi1 and anti-Asi2 antibodies, overnight at 4°C.

These are yes or no findings as the source states them, for the method shown. In cells and extracts the contact can be indirect. Some results given as binding are weak or reduced against the parent protein; the word gives no strength. For some assays here: Tags and fused reporters may be left off the sequences shown.

B1: SBP-Asi2 (protein, UniProt P53895 1-289)
chain: T2 sequence
With B1, the binding result in test [1] was “binds”.

B2: Asi1 (untagged, overexpressed) (protein, UniProt P54074 1-624)
chain: T3 sequence 1
With B2, the binding result (in the test with SBP-Asi2 (S. cerevisiae); in test [1]) was “binds” each time.

B3: Asi2Δ4 (protein, UniProt P53895)
chain: MARPQNHRRSNWTERDDNDDYLFQRFLEESETRHSREPSPVTEQSQQELQQDVQQAIDGIFNSLRRNMSSTSNINRAANMDATTNGNGGINADTIRATNANTADSPFTARQQSPLRTFLRNLFILDYFIGLILFPFSVYNILRSGFNSMTFSENDFIIEIVGYWKFAKIFGSGGTTLIAYKDTGKLGLLGKFHNIIVFYSSPVIKHIMKSRDGNEPNLNWIRLMFAKAFELFVKVSTILIYLAYGVSGTVYMVTAGFFFVFTVIRRYKGVHRMLVSQRITGPGVF
With B3, the binding entry in test [2] is “binds”.

B4: Asi3 (untagged, overexpressed) (protein, UniProt P53983 1-676)
chain: T1 sequence
As to B4, the binding entry with SBP-Asi2 (S. cerevisiae) is recorded as “binds”.
